Source: article PMC6175882
These are yes or no findings as the source states them, for the method shown. Binding seen in cells or lysates may run through a third protein. Some binding calls cover weakened binding; strength is not graded here.

Sequences of proteins named here, by UniProt entry; tags and fusion partners are left off.
UniProt Q92922: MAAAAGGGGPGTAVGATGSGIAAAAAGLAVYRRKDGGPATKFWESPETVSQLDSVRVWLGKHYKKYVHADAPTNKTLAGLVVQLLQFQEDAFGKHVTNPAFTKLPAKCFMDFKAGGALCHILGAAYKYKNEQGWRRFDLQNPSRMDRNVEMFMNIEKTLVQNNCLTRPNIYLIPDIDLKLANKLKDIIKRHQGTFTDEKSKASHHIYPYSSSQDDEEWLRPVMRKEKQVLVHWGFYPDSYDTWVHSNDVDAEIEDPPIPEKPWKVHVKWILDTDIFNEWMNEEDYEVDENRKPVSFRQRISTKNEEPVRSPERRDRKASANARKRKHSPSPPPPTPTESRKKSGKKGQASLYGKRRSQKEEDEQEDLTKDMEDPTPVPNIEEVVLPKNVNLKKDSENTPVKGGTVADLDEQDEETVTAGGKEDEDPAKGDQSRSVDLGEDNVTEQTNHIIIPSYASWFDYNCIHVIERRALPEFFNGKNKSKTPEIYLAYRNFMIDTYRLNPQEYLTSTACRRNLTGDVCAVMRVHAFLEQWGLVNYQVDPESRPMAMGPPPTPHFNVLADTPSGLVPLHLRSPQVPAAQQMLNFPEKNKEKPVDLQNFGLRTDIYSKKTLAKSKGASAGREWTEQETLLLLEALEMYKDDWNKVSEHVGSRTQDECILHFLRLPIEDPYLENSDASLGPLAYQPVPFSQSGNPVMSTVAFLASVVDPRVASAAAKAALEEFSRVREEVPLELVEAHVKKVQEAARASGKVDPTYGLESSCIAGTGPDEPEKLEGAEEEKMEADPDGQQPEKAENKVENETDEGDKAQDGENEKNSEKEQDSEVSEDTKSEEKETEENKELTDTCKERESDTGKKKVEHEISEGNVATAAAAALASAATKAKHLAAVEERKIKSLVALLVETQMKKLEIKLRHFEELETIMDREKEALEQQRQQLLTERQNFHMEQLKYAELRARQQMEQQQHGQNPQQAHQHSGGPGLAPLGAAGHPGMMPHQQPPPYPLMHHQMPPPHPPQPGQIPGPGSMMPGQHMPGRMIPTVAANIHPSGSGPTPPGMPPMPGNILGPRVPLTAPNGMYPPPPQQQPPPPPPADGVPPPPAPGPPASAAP
UniProt Q12824: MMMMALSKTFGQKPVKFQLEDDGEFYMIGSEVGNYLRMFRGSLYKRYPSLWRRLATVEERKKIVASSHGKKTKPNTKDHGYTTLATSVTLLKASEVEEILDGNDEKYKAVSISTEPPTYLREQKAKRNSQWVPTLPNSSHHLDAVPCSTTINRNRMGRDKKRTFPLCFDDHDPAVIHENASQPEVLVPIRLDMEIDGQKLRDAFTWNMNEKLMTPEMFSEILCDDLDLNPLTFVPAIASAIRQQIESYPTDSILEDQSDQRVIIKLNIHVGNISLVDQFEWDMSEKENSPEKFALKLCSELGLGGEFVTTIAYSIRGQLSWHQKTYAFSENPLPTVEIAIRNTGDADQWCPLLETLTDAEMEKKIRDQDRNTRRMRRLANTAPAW
UniProt P51531: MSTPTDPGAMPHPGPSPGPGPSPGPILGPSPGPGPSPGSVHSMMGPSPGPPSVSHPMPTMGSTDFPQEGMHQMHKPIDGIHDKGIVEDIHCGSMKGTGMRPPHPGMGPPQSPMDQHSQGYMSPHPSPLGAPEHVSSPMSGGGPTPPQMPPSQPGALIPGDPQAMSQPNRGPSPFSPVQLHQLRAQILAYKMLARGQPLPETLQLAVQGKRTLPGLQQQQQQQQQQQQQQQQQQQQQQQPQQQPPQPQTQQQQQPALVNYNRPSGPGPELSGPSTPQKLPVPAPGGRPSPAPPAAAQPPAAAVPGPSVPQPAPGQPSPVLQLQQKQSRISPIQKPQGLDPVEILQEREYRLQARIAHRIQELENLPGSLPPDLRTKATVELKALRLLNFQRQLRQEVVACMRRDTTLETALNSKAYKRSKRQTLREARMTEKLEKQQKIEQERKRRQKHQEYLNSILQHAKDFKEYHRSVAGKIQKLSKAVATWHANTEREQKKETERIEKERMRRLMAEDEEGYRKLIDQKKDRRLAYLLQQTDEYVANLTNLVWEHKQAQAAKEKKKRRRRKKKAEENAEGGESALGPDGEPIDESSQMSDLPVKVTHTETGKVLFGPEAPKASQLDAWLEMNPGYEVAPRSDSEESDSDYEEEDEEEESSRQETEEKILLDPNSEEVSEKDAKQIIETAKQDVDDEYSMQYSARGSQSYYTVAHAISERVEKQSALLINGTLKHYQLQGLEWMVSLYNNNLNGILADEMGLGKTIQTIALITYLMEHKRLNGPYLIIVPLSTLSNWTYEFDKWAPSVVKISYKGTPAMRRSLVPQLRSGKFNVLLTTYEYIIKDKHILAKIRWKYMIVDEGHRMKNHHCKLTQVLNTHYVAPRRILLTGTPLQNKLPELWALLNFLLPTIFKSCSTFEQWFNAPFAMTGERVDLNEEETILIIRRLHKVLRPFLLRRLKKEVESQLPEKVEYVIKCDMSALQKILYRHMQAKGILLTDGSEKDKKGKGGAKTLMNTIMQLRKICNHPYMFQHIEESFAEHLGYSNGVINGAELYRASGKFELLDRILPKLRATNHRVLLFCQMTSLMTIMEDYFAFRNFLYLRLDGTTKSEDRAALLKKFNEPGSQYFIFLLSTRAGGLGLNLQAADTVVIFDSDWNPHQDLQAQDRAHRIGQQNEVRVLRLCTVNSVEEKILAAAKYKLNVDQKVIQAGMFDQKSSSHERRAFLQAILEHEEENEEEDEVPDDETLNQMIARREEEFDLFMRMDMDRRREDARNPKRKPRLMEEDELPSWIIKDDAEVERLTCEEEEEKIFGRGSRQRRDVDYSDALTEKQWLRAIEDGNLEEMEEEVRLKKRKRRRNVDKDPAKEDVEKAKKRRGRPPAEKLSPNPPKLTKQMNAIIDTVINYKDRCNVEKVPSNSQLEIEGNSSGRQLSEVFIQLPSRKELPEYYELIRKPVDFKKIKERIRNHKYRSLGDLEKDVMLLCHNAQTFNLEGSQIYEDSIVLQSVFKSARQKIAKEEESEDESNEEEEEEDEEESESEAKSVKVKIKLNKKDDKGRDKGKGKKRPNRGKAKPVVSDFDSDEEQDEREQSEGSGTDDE
UniProt P51532: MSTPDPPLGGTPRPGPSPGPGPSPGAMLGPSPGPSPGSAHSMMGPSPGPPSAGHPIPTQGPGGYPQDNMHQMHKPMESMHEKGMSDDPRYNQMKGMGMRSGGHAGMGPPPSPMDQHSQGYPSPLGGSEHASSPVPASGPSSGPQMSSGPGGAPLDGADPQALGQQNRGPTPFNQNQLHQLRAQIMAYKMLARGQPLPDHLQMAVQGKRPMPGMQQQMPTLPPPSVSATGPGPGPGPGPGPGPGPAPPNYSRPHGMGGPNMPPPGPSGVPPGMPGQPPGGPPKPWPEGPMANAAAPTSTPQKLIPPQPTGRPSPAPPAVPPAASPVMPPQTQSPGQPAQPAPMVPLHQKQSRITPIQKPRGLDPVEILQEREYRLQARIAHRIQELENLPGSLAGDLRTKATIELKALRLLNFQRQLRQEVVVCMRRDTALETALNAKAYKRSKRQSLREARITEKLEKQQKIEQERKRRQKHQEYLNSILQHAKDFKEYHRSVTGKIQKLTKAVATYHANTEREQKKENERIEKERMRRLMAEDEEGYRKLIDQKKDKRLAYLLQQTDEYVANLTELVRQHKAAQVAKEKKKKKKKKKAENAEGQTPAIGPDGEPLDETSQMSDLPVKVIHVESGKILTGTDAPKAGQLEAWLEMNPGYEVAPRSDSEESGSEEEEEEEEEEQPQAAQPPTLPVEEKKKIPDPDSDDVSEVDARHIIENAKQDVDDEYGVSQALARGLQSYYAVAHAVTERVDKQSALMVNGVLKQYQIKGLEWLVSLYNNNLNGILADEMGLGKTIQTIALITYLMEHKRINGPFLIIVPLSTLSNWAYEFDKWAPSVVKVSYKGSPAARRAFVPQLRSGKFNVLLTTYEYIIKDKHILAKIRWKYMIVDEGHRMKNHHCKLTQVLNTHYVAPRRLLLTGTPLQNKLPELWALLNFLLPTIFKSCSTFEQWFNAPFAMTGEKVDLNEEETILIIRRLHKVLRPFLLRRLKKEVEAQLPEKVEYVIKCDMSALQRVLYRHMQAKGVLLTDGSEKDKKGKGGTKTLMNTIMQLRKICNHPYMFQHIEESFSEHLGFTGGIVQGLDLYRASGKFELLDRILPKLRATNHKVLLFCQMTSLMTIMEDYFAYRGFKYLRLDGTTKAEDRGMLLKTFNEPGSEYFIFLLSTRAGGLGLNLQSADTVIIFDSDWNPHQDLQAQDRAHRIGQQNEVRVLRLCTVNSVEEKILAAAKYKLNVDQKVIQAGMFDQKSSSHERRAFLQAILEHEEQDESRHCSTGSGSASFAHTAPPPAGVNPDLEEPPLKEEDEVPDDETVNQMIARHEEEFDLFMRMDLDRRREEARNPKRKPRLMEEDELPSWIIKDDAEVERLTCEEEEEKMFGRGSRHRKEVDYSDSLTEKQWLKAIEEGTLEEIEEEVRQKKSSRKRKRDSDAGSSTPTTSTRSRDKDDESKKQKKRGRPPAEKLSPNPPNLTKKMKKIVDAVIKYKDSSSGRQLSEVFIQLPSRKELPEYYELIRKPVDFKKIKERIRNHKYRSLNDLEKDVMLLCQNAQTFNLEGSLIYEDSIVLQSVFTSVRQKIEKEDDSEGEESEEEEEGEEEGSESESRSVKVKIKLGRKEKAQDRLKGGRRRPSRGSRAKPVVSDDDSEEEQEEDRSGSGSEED

Legend:
[1] = target: SMARCC1 (human (endogenous in TOV21G)) (UniProt Q92922); assay: co-IP; endogenous proteins; antibodies to SMARCC1 (BAF155) or SMARCB1 (SNF5), isotype-matched IgG as control; nuclear fractions of parental and resistant TOV21G cells, and of TOV21G cells with or without SMARCA4 knockdown; immunoblot
[2] = target: SMARCB1 (human (endogenous in TOV21G)) (UniProt Q12824); assay: as above

Substance | binding [1] | binding [2]
SMARCA2 (from UniProt P51531 1-1590) | binds | 
SMARCA4 (from UniProt P51532 1-1647) |  | binds
